Molecules are shown by their SMILES. Among all 71,000 compounds or so, about 180 (0.25%) were called active. The call rests on the fitted dose curve; in most records, active means well fitted curve in the direction sought with a large enough effect; inconclusive means small, poorly fitted or top-dose-only effect; inactive means flat fitted curve, though single readings scatter. The entries are a selection whose mix differs from that of the whole data set. The source gives no active or inactive call for entries shown without one.
On the % scale 0 is the no-effect control and ±100 the full control effect; potency means the concentration at half of the fitted maximal effect.

The test system of this assay is DNA polymerase III holoenzyme (E. coli). The experiment in a line: qHTS Assay for Inhibitors of DNA Polymerase III Holoenzyme System. The note with it: reconstituted DNA polymerase III holoenzyme replication, biochemical; activity change, negative = inhibition: at 11.4 µM (top of the series). The method, then:
NIH Molecular Libraries Screening Centers Network [MLSCN]
NIH Chemical Genomics Center [NCGC]
Assay Provider: Charles McHenry, University of Colorado
E. coli DNA polymerase III holoenzyme complex was assayed for DNA production by fluorescent detection of the double-stranded DNA product with PicoGreen dye. The holoenzyme complex was reconstituted from the following purified protein components: DNA Polymerase III, beta subunit processivity factor, SSB single-stranded DNA binding protein, and Primase. Single-stranded, circular M13Gori was used as a substrate with dNTPs and NTPs also supplied to the substrate reagent. Compounds from the NCGC collection were incubated with the holoenzyme mixture for 15 min at room temperature to allow binding to occur, and then the reaction was started by the addition of substrate. […] Reaction progress was measured in a ViewLux CCD imager in fluorescence intensity mode by using 480 nm excitation and 540 nm emission filter set. […]
Three uL of holoenzyme mixture were dispensed to 1536-well Greiner black solid bottom plates. […] After room temperature incubation for 35 minutes, 1 uL of PicoGreen solution was added to each well and the plates were read 480 nm excitation and 540 nm emission using ViewLux (Perkin-Elmer) High-throughput CCD imager and fluorescence protocol settings. […]
(qHTS replaces the single test concentration by a dilution series.)
In the case of `C[N@@+]1(CC[N@@+]2(C)CCC[C@H]2c2cccnc2)CCC[C@@H]1c1cccnc1`, the activity change, negative = inhibition was -73.7%.

Regarding `O=C(Nc1ccc(Cl)cc1C(=O)O)c1ccc2c(c1)C(=O)N(Cc1ccco1)C2=O`, the Potency was active: 31.6 µM.

These data come from PubChem BioAssay AID603 (National Center for Advancing Translational Sciences (NCATS), 2007).
